Results taken from PubChem BioAssay AID1439 (NMMLSC, 2008).
About 770 (0.35%) of roughly 220,000 compounds were called active. Inconclusive results, whose numbers are uncertain, are shown with a selection of clear calls. No stated cut-off is given here; in the data, active means binding response below about 49% or above about 150%; inconclusive means no clear call, values can overlap the other calls; inactive means in between.

By UniProt entry, the sequences of proteins in these tests, tags left out.
UniProt P09471, whole entry, looked up: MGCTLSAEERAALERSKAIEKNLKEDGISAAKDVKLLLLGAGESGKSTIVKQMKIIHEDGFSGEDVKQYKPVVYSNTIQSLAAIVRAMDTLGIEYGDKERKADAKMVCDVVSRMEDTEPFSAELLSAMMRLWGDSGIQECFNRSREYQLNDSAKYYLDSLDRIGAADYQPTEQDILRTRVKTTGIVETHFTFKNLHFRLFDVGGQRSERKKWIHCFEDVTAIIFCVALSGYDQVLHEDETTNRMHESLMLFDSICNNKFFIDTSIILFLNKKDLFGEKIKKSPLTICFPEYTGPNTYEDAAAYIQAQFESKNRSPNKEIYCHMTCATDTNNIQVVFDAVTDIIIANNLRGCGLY

These compounds were tested against Guanine nucleotide-binding protein G(o) subunit alpha (Homo sapiens) (UniProt P09471) (assay: RGS7-Galphao binding modulators, primary screen, biochemical, multiplexed bead flow cytometry (AID 1439;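 further: fluorescent Galphao held in activated GDP-AlF4 state binding bead-coupled RGS7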)). Settings: at 10 µM, actives lie on both sides.

Compound | binding response (% of control)
N/C(=N\OC(=O)c1cccnc1)c1ccc(Cl)cc1Cl | inconclusive: 86.9%
Cc1ccc(C)n1-c1cc([N+](=O)[O-])ccc1-n1ccnc1 | inconclusive: 79.7%
Fc1ccccc1NC(=S)N(CCN1CCCCC1)Cc1ccco1 | inactive: 102%
CNc1ncc(C(=O)c2ccc(F)cc2)s1 | inconclusive: 106%
Cc1nc(-c2ccc(Cl)cc2)sc1C1(C)CC(c2cccnc2)=NO1 (centres undefined) | inconclusive: 121%
CCOC(=O)NNC(=O)C1CCC(C)CC1 (centres undefined) | inactive: 104%
O=C(O)/C(=C\C(=O)c1ccccc1)Nc1ccccc1 | inconclusive: 142%
CCOc1cc(N2CCOCC2)c(OCC)cc1NC(=O)c1ccc(OC(C)C)cc1 | inactive: 97%
CCOc1nc(CC(C)C)c2c(c1C#N)CC(C)(C)OC2 | inconclusive: 104%
COc1cccc(N2CCN(C(=O)c3ccc4nc(N5CCC(C)CC5)sc4c3)CC2)c1 | inconclusive: 106%
S=C1N(c2ccccc2)CN(CCN2CCOCC2)CN1c1ccccc1 | inconclusive: 118%
Cc1ccc(S(=O)(=O)NN2C(=O)/C(=C/c3cccs3)SC2=S)cc1 | inconclusive: 84.6%
O=CNn1cnc2c(oc3nc(-c4ccccc4)cc(-c4ccco4)c32)c1=O | inactive: 96.6%
O=C(CCS(=O)(=O)c1ccccc1)Nc1nc2cc3c(cc2s1)OCO3 | inconclusive: 16.3%
COc1ccc(CNC(=O)C2CCC(CNc3c(N4CCC(C)CC4)c(=O)c3=O)CC2)cc1 (centres undefined) | inconclusive: 92.2%
Cn1c2ccccc2c2ncn(CCN3CCOCC3)c(=O)c21 | inactive: 114%
COCCSc1nc(N)c2c3c(sc2n1)CN(C)CC3 | inconclusive: 192%
CCOc1ccc(Nc2ccnc3cc(Cl)ccc23)cc1 | inconclusive: 74%
CC(O)C(=O)NCCOCCOCCNC(=O)C(C)O (centres undefined) | inactive: 104%
O=C(CC(c1ccccc1)c1ccccc1O)NCc1ccccc1 (centres undefined) | inconclusive: 58.6%
Cc1ccc(NC(=O)N(CCC#N)Cc2ccccc2)cc1 | inconclusive: 88.5%
Cc1ccc(O)c(C(CC(=O)NCc2cccnc2)c2ccccc2)c1 (centres undefined) | inconclusive: 97.2%
Cc1cccc(N2C(=O)C(O)=C(C(=O)c3cccs3)C2c2ccc(Cl)cc2)n1 (centres undefined) | inconclusive: 136%

Compound | binding response (% of control)
N#Cc1ccc(C23CC4(C2)[C@H](CN(Cc2ccc(-c5ccccc5)cc2)[C@@H]4c2ccccc2)C3c2ccccc2)cc1 (some centres undefined) | inconclusive: 79%
CCn1c(SCC(=O)Nc2c(C#N)cnn2-c2ccccc2)nnc1-c1cccs1 | inconclusive: 261%
O=C(Nc1ccc(OC(F)(F)F)cc1)N1CCN(c2ccnc3cc(Cl)ccc23)CC1 | inconclusive: 96.7%
CCN(c1ccccc1)S(=O)(=O)c1ccc(OC)c(NC(=O)Cn2cnc3c2c(=O)n(C)c(=O)n3C)c1 | inactive: 98.5%
O=C(Nc1ncc(S(=O)(=O)c2ccc([N+](=O)[O-])cc2)s1)c1cccnc1 | inconclusive: 107%
Cc1cnc(C(=O)OCC(=O)Nc2ccc(C)c(S(=O)(=O)N3CCCCCC3)c2)cn1 | inconclusive: 99.1%
Cc1ccc(-c2cc(C(=O)OCn3nnc4ccccc4c3=O)c3ccccc3n2)cc1 | inactive: 98.9%
N/C(=N\NC(=O)c1ccc(Cl)cc1)c1cnccn1 | inconclusive: 45.4%
O=C(Nc1ccccc1)C1CCCN(C(=O)c2ccc(Cl)cc2)C1 (centres undefined) | inconclusive: 106%
Cc1c(/C=C(\CC(=O)O)c2nc3ccccc3s2)cc(C#N)n1C | inconclusive: 80.6%
Cc1cc(OCCCCN2C(=O)NC(C)(C)C2=O)ccc1[N+](=O)[O-] | inconclusive: 60.8%
CN(CC(=O)NCCc1ccccc1)S(=O)(=O)c1ccccc1 | inconclusive: 121%
C=CCNC(=O)c1sccc1Oc1ccc(F)cc1[N+](=O)[O-] | inconclusive: 71.5%
Cc1ccccc1OCC(=O)OCC(=O)Nc1ccc(N2CCOCC2)cc1 | inconclusive: 110%
CN(C)c1ccc(CNCCC(Cc2ccccc2)c2ccco2)cc1 (centres undefined) | inconclusive: 69.6%
CCc1ccc(C(=O)NC(C(=O)NCC2CCCO2)C(C)C)cc1 (centres undefined) | inconclusive: 86.4%
COC(=O)CNC(=O)COC(=O)/C=C/c1cccs1 | inconclusive: 95.5%
CCCCn1ccnc1C(=O)c1ccc(S(=O)(=O)N2CCCC2)cc1 | inconclusive: 86.4%
O=c1[nH]c2ccc(S(=O)(=O)NCc3ccccc3)cc2[nH]1 | inconclusive: 107%
C[N+]1(CC(O)COCC2COc3ccccc3O2)CCOCC1 (centres undefined) | inconclusive: 97.3%
CNC(=S)N/N=C(\C)c1ccccc1 | inconclusive: 79.4%
CS(=O)(=O)c1ccc2nc(NC(=O)c3ccc(S(=O)(=O)NCC4CCCO4)cc3)sc2c1 (centres undefined) | inactive: 102%
O=C(OCC(=O)N1CCCC1)c1ccc(S(=O)(=O)N2CCOCC2)cc1 | inconclusive: 106%

Compound | binding response (% of control)
CCOC(=O)n1c(O)c(N=NC(N)=S)c2cc(C)ccc21 | inconclusive: 93.1%
N#C/C(N)=C(/C#N)N=Cc1cccc(Cl)c1 | inconclusive: 104%
COC(=O)c1sccc1NC(=O)CC1C(=O)NCCN1C(=O)c1ccc(N(C)C)cc1 (centres undefined) | inconclusive: -48%
Cc1ccsc1C1CC(=O)Nc2ccccc2S1 (centres undefined) | inconclusive: 76%
CCOC(=O)c1[nH]c(C)c(CN(C(C)=O)c2ccc(OCC)cc2)c1C | inactive: 101%
COc1ccc(/C=N/n2c(C)nc3sc(C)c(C)c3c2=O)cc1 | inconclusive: -282%
CCN1C(=O)C2(SC(NC(C)=O)=NN2C(C)=O)c2cc(C)cc(C)c21 (centres undefined) | inactive: 77%
COc1cc2c(c(OC)c1O)C(=O)CO2 | inconclusive: -400%
COc1ccc(NC(=O)COC(=O)c2cc(OC)c(OC)c(OC)c2)c([N+](=O)[O-])c1 | inconclusive: 113%
CCCOc1ccc(S(=O)(=O)N2CCCC2)cc1[N+](=O)[O-] | inconclusive: 77.1%
Cc1c(NC(=O)c2ccc(-c3ccccc3)cc2)cccc1C(=O)O | inconclusive: 76%
O=C(c1ccc(Cl)nc1)N1CCN(S(=O)(=O)c2ccccc2)CC1 | inconclusive: 127%
CCn1c(SCC(=O)N(C)c2c(N)n(Cc3ccccc3)c(=O)[nH]c2=O)nc2ccccc21 | inconclusive: 81.9%
Cc1nn(C)c(C)c1CNC(=O)c1nn2c(c1Cl)NC(c1cccs1)CC2C(F)(F)F (centres undefined) | inactive: 100%
CC(=O)c1cccc(NC(=O)CN2C(=S)NC(C)(C)CC2C)c1 (centres undefined) | inconclusive: 101%
COc1cccc(NC(=O)N(CCCN2CCOCC2)C(C)c2cc3ccccc3o2)c1 (centres undefined) | inactive: 79.9%
Cc1cc(NC(=O)c2ccc(C#N)cc2)on1 | inactive: 94.2%
C=CCn1c(=NC(=O)c2cccs2)sc2cc(NC(C)=O)ccc21 | active: 152% [activator]
CC[C@H](C)[C@H](NC(N)=O)C(=O)NCCc1ccc(OC)c(OC)c1 | inconclusive: 75.8%
CC(=O)C1=C(O)C(=O)N(c2ccc(S(=O)(=O)Nc3nccs3)cc2)C1c1ccc(F)cc1 (centres undefined) | inconclusive: 126%
Cc1cc(C(F)(F)F)nn1CC(=O)NNC(=S)Nc1ccc(Cl)cc1 | inactive: 102%
Cc1ccn2cc(CCNS(=O)(=O)c3ccc([N+](=O)[O-])cc3)nc2c1 | inconclusive: 92.8%
CCn1c(-c2ccccc2)c(C(=O)CC#N)c2ccccc21 | inconclusive: 106%

Copied from the list.
Under binding response (% of control), `Cc1ccc(S(=O)(=O)NN2C(=O)/C(=C/c3cccs3)SC2=S)cc1` has the entry inconclusive: 84.6%
Under binding response (% of control), `CCCCn1ccnc1C(=O)c1ccc(S(=O)(=O)N2CCCC2)cc1` has the entry inconclusive: 86.4%
Under binding response (% of control), `COC(=O)c1sccc1NC(=O)CC1C(=O)NCCN1C(=O)c1ccc(N(C)C)cc1` (centres undefined) has the entry inconclusive: -48%
Under binding response (% of control), `CCCOc1ccc(S(=O)(=O)N2CCCC2)cc1[N+](=O)[O-]` has the entry inconclusive: 77.1%

Further structures follow:

Compound | binding response (% of control)
CCN(CC(=O)NC(C)(C)C)C(=O)C(c1ccccc1)c1ccccc1 | inconclusive: 108%
CCCCNc1n[n+](C)c(-c2cccc(C)c2)s1 | inconclusive: 124%
CN(C)c1nnnn1-c1ccc(Oc2ncc(C(F)(F)F)cc2Cl)cc1 | inactive: 105%
O=C(N/N=C/c1ccc(O)cc1)c1cc(C23CC4CC(CC(C4)C2)C3)[nH]n1 | inconclusive: 203%
COc1ccc(/C(C)=N/NC(=O)c2ccccc2N)cc1 | inconclusive: 109%
CC(C)C(NS(=O)(=O)c1cccc2nsnc12)C(=O)Nc1nc2ccc(Cl)cc2s1 (centres undefined) | inactive: 104%
C[n+]1nc(Nc2cccc(F)c2)sc1-c1ccc(C(=O)O)cc1 | inconclusive: 103%
COc1ccc([C@H]2[C@@H]3C=CCC[C@@]3(C)C(=O)N2Cc2ccccc2)cc1Cl | inconclusive: 133%
CCOc1ccc2nc(NC(=O)C3=NNC(=O)CC3)sc2c1 | inconclusive: 126%
Cn1c(=O)c2cc3ccc(Cl)cc3nc2n(C)c1=O | inconclusive: 91.7%
O=c1c2cc(-c3ccccc3)sc2nc2n1N=C(c1ccccc1)CS2 | inconclusive: 115%
COc1ccccc1NS(=O)(=O)c1cc(Cl)ccc1OC | inactive: 129%
C=CCNC(=O)c1c(CSc2ccccc2)noc1C(=O)NCc1ccccc1 | inconclusive: 105%
Fc1cccc(/C=N/N=C/c2cccc(F)c2)c1 | inconclusive: 103%
O=c1cc(CSc2n[nH]c(=O)n2C2CC2)c2ccc(O)cc2o1 | inconclusive: 88.3%
CCS(=O)(=O)Nc1cc(OC)c(OC)cc1Cc1nccc2cc(OC)c(OC)cc12 | inconclusive: 88.6%
CCOc1c(Br)cc(CNc2ccc(N3CCOCC3)cc2)cc1OC | inconclusive: 81.9%
O=C(CCn1c(=S)oc2ccccc21)NC1CCCCC1 | inconclusive: 93.1%
CCC1=C(OC(=O)N(CC)CC)N2C(=O)OC(=NCc3ccccc3)[C@]2(C)[C@H]2C1=CC[C@H]1C(=O)N(CC)C(=O)[C@H]12 | inconclusive: 105%
Cc1ccc(N(Cc2cc3ccc(C)cc3[nH]c2=O)C(=O)c2ccco2)c(C)c1 | inconclusive: 85.5%
